Assay results from article PMC5343593.
Read-outs that look alike come from different tables or passages of the source. These are yes or no findings as the source states them, for the method shown. In cells and extracts the contact can be indirect. A yes stands for co-enrichment or nearness to the bait. Other partners may have been found. For some of these results: Sequences can lack the tags named with a protein. Blank lines part the entries; values can stand above or below the molecule they belong to.

Amino acid sequences for entries named in this document (tags omitted).
UniProt Q63HN8: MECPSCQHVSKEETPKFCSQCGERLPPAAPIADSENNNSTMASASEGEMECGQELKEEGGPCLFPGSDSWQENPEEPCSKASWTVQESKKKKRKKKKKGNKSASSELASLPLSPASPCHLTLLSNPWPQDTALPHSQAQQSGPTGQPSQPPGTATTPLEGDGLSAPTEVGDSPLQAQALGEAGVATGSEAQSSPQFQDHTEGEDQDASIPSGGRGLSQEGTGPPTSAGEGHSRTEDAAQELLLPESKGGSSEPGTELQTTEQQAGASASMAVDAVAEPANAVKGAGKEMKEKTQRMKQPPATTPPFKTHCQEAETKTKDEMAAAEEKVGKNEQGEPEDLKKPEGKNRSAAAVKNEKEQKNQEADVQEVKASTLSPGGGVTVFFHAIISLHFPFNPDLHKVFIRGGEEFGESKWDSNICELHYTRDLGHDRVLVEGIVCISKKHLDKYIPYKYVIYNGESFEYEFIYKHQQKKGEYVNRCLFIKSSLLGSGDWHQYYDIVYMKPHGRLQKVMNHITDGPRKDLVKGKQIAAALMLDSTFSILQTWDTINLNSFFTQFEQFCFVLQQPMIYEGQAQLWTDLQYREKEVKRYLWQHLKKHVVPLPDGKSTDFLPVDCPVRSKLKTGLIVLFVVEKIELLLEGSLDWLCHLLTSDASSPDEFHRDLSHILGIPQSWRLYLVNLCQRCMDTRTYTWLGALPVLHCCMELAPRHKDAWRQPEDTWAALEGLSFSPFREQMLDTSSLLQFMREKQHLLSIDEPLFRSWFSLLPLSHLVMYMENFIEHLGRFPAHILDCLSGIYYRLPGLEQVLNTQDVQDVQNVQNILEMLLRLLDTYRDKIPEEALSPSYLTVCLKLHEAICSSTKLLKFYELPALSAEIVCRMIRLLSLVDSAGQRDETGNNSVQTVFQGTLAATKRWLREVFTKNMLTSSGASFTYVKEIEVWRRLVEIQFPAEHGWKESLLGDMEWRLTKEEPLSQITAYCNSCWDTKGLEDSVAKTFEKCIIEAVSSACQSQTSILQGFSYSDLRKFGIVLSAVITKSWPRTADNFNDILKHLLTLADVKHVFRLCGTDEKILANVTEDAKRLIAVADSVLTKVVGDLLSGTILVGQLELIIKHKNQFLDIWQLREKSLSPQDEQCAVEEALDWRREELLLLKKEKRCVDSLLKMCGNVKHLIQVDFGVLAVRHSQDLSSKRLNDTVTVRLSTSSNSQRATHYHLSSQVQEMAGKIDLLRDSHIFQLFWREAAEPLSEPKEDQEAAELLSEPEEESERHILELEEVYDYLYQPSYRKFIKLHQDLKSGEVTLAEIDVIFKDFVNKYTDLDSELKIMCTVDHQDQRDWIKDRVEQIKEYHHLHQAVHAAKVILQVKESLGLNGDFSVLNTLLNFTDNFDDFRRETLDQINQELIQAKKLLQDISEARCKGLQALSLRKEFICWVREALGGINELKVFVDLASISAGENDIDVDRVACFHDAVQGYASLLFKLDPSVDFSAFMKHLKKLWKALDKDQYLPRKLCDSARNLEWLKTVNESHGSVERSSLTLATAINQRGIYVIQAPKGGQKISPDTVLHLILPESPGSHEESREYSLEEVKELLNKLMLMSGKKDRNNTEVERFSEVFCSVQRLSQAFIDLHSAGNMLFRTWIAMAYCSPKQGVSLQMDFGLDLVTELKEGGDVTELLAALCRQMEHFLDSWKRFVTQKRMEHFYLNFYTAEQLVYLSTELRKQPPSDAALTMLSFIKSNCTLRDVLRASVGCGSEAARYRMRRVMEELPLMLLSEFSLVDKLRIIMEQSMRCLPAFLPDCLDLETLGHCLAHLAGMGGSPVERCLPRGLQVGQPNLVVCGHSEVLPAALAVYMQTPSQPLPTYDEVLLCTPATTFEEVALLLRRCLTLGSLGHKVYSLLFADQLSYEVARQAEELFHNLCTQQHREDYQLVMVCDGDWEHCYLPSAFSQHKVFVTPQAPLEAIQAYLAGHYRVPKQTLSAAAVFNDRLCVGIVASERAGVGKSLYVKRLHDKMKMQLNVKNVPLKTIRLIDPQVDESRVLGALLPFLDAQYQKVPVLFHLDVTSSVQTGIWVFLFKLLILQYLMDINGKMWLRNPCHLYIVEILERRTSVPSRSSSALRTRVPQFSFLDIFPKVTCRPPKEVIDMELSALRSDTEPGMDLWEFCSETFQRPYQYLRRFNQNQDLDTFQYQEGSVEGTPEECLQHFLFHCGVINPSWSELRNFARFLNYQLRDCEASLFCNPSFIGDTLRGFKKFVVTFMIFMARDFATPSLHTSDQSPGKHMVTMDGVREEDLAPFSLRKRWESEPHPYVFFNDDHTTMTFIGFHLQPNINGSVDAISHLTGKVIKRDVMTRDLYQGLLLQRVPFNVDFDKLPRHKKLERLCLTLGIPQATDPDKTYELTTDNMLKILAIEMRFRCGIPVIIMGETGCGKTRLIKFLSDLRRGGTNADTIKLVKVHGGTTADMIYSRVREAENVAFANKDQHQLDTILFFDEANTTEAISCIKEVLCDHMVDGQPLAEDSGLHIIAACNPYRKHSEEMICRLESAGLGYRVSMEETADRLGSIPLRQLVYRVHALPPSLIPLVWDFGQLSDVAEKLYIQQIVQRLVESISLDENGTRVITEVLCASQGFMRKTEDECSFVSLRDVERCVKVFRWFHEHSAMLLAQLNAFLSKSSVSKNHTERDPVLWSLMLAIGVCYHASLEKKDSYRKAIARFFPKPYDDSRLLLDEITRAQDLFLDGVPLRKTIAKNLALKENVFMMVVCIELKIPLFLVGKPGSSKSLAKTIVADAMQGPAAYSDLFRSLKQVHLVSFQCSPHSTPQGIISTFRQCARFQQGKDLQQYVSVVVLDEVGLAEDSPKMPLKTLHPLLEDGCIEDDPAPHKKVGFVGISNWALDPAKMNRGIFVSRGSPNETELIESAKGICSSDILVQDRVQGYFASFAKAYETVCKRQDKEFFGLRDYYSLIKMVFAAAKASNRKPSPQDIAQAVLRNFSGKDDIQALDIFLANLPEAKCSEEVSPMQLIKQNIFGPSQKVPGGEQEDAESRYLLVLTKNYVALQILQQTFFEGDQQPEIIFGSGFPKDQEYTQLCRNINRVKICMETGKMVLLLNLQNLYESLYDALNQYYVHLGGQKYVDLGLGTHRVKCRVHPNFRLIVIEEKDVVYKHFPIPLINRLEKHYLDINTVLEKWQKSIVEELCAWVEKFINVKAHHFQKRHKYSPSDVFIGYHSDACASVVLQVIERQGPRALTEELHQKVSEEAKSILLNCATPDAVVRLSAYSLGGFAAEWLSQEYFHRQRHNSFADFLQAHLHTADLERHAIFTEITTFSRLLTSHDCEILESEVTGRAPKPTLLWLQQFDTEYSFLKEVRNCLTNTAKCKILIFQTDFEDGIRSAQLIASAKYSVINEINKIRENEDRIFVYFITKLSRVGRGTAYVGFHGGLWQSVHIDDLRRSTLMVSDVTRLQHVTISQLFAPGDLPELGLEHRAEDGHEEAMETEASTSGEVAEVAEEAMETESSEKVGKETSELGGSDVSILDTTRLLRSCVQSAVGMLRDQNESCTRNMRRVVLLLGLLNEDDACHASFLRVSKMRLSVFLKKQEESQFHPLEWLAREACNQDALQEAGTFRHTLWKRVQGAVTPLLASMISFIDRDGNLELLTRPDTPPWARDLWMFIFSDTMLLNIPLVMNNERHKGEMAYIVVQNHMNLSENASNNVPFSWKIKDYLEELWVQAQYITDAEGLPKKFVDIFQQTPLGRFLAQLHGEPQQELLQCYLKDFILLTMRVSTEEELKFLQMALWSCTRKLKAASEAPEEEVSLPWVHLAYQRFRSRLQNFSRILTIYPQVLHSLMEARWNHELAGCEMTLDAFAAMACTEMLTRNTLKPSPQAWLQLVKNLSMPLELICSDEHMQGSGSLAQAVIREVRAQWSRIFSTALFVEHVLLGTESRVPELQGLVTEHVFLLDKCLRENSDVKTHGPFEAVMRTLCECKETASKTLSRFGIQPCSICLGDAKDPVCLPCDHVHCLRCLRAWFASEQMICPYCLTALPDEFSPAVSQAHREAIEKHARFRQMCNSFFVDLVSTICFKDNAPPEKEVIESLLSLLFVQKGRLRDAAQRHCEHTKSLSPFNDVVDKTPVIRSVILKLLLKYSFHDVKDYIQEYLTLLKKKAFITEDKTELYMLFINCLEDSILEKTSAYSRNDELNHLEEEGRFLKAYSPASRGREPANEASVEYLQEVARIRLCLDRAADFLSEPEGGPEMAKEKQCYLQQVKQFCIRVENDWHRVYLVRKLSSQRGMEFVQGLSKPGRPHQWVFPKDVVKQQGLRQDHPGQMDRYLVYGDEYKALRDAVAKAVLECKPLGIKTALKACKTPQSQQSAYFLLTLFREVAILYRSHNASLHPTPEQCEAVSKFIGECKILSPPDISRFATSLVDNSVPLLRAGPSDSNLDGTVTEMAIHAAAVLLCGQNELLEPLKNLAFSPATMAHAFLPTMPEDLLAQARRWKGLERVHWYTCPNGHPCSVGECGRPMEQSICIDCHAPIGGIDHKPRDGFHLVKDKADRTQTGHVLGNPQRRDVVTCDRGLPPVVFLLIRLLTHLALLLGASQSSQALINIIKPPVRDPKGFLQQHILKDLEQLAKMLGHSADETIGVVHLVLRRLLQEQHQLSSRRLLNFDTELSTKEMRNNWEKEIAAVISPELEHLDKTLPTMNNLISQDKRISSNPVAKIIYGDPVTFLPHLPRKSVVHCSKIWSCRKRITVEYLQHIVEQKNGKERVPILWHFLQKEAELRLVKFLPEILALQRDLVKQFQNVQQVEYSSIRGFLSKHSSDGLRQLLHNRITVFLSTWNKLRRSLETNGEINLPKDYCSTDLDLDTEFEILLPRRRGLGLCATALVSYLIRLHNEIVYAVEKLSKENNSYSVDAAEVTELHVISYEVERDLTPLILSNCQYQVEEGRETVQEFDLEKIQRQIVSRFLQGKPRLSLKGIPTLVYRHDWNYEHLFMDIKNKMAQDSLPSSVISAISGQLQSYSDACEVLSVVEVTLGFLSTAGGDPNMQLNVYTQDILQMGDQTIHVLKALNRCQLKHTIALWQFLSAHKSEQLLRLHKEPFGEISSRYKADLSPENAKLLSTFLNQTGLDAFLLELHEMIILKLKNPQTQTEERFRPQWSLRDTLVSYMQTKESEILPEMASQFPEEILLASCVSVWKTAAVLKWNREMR

Experiments:
[1] = target: T1, USP15L-3FLAG (long isoform of USP15 with three tandem FLAG tags at the C-terminus) (human) (UniProt Q9Y4E8); test: affinity purification with mass spectrometry; USP15L-3FLAG or USP15S-3FLAG transiently overexpressed in HEK293T, precipitated with anti-FLAG antibody; complexes reduced, alkylated, digested with Lys-C and trypsin; LC-MS/MS on total co-precipitates; hits reproducible in all four trials
T1 sequence: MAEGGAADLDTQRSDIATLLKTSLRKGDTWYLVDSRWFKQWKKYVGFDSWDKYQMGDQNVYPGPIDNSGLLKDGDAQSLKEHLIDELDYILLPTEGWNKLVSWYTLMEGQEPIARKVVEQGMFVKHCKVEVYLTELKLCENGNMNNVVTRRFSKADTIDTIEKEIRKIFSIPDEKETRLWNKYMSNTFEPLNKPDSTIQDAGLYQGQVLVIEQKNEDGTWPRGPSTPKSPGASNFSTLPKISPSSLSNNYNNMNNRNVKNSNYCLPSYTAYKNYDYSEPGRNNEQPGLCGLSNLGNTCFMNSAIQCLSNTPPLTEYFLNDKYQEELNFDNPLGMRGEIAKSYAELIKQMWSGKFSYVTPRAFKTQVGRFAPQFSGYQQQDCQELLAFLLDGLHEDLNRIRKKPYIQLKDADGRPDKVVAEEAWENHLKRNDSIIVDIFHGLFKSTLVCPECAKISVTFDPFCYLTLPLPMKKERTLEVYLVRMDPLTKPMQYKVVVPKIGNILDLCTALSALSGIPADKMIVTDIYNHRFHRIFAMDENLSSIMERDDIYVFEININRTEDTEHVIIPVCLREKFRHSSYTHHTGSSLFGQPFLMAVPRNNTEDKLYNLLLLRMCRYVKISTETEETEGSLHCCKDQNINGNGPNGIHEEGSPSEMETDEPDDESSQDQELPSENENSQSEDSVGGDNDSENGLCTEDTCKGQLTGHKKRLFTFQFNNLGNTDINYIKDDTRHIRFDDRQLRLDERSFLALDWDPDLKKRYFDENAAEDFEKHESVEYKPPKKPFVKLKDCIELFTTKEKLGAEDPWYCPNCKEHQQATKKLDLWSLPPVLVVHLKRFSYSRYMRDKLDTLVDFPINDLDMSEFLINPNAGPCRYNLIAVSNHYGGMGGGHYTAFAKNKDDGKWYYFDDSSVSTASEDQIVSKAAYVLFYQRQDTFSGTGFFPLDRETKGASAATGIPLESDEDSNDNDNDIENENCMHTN

mysterin-FLAG (human) = mysterin-FLAG (human) (UniProt Q63HN8); test: affinity purification with mass spectrometry; mysterin-FLAG transiently overexpressed in HEK293T, precipitated from lysate with anti-FLAG antibody; total co-precipitates digested with Lys-C and analysed by LC-MS/MS without SDS-PAGE; hits reproducible in four trials
[2] = target: T1, USP15L-3FLAG (long isoform of USP15 with three tandem FLAG tags at the C-terminus) (human); test: affinity purification with mass spectrometry; USP15L-3FLAG or USP15S-3FLAG transiently overexpressed in HEK293T, precipitated with anti-FLAG antibody; complexes reduced, alkylated, digested with Lys-C and trypsin; LC-MS/MS on total co-precipitates; hits reproducible in all four trials; remark: listed apart in the source
[3] = target: T2, USP15S-3FLAG (short isoform of USP15 with three tandem FLAG tags at the C-terminus) (human) (UniProt Q9Y4E8); test: as above
T2 sequence: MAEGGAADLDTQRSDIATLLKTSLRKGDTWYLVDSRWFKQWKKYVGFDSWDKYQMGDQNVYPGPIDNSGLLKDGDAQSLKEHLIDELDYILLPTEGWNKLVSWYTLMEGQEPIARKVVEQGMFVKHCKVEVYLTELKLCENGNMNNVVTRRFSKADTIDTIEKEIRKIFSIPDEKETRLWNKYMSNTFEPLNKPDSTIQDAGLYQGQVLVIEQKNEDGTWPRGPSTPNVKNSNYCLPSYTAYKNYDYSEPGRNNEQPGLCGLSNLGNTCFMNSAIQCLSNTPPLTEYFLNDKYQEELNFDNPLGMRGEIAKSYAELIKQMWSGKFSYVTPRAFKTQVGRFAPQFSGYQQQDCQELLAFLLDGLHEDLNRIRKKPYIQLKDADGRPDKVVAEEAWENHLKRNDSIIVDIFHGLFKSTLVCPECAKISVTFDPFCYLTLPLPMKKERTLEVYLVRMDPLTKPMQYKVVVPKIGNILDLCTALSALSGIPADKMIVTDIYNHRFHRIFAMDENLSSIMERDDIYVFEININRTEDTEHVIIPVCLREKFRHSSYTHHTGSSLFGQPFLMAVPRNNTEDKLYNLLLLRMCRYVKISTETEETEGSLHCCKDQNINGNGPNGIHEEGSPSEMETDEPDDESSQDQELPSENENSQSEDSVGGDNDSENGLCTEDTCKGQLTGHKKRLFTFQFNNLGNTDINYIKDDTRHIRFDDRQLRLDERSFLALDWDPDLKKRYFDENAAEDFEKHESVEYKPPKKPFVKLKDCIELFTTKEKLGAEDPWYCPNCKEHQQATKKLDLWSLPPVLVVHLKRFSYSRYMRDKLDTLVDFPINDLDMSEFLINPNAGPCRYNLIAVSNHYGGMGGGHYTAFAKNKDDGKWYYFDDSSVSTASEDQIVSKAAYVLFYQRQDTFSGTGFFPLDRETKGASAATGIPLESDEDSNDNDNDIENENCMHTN

binding [1]: binds
Molecule: mysterin (moyamoya steno-occlusive disease-associated AAA+ and RING finger protein), endogenous (from UniProt Q63HN8 1-5207)

binding (mysterin-FLAG (human)): binds
Molecule: LYAR, endogenous (from UniProt Q9NX58 1-379)

binding [2]: binds
binding [3]: binds
B1: SART3, endogenous (protein, UniProt Q15020 1-963)
chain: MATAAETSASEPEAESKAGPKADGEEDEVKAARTRRKVLSRAVAAATYKTMGPAWDQQEEGVSESDGDEYAMASSAESSPGEYEWEYDEEEEKNQLEIERLEEQLSINVYDYNCHVDLIRLLRLEGELTKVRMARQKMSEIFPLTEELWLEWLHDEISMAQDGLDREHVYDLFEKAVKDYICPNIWLEYGQYSVGGIGQKGGLEKVRSVFERALSSVGLHMTKGLALWEAYREFESAIVEAARLEKVHSLFRRQLAIPLYDMEATFAEYEEWSEDPIPESVIQNYNKALQQLEKYKPYEEALLQAEAPRLAEYQAYIDFEMKIGDPARIQLIFERALVENCLVPDLWIRYSQYLDRQLKVKDLVLSVHNRAIRNCPWTVALWSRYLLAMERHGVDHQVISVTFEKALNAGFIQATDYVEIWQAYLDYLRRRVDFKQDSSKELEELRAAFTRALEYLKQEVEERFNESGDPSCVIMQNWARIEARLCNNMQKARELWDSIMTRGNAKYANMWLEYYNLERAHGDTQHCRKALHRAVQCTSDYPEHVCEVLLTMERTEGSLEDWDIAVQKTETRLARVNEQRMKAAEKEAALVQQEEEKAEQRKRARAEKKALKKKKKIRGPEKRGADEDDEKEWGDDEEEQPSKRRRVENSIPAAGETQNVEVAAGPAGKCAAVDVEPPSKQKEKAASLKRDMPKVLHDSSKDSITVFVSNLPYSMQEPDTKLRPLFEACGEVVQIRPIFSNRGDFRGYCYVEFKEEKSALQALEMDRKSVEGRPMFVSPCVDKSKNPDFKVFRYSTSLEKHKLFISGLPFSCTKEELEEICKAHGTVKDLRLVTNRAGKPKGLAYVEYENESQASQAVMKMDGMTIKENIIKVAISNPPQRKVPEKPETRKAPGGPMLLPQTYGARGKGRTQLSLLPRALQRPSAAAPQAENGPAAAPAVAAPAATEAPKMSNADFAKLFLRK
